According to PubChem BioAssay AID206 (DTP/NCI, 2004):
The list is a part of this screen's results and no random one: it gathers some chemical classes. Not every dose and run of a compound is shown. T/C is the treated group as % of the vehicle group. Schedules are NCI's codes, taken here to give the interval after Q, in days (D) or hours (H), and the number of doses after X. Some T/C values are followed by the survivors on the day toxicity was checked; without a count or a note in brackets, all were alive then. Some doses were run more than once; the results are listed from low to high. Some entries give survivors of the animals treated and no T/C: the source holds a T/C of zero for them, seemingly a mark for toxic or unscored doses. Counts of survivors are from the toxicity check, whose day is not always given; animals may have died later.

System: nude mice, HT29 intrarenal xenograft, tumor weight T/C
Test: NCI In Vivo Anticancer Drug Screen. Data for tumor model HT29;CX-1 Human Adenocarcinoma (MER+) (intrarenal inoculation) in NU/NU Swiss (nude) mice
Conditions: T/C endpoint: mean tumor weight change, higher T/C = larger tumour
Procedure: The antitumor activity of compounds was measured in mice bearing transplantable tumors. Survival or tumor size were measured and the results are expressed as the measurement made in the treated group (T) divided by the measurement made in the vehicle treated control group (C). The tumor model used in this assay is HT29;CX-1 Human Adenocarcinoma (MER+) (intrarenal inoculation) in NU/NU Swiss (nude) mice

## CC1=CC(=O)C(N(CCCl)CCCl)=CC1=O
dose: 0.75 mg/kg/injection, schedule: Q01DX010 (sc), vehicle: Klucel (hydroxypropylcellulose) (HPC), evaluated on day 11
  T/C: 47 [2 of 2 alive on day 11] and 231 % of control
dose: 1.5 mg/kg/injection, schedule: Q01DX010 (sc), vehicle: Klucel (hydroxypropylcellulose) (HPC), evaluated on day 11
  T/C: 32 and 137 % of control [2 of 2 alive on day 11]

## Cc1ccc(N(CCBr)CCBr)cc1
dose: 9.38 mg/kg/injection, schedule: Q04DX004 (sc), vehicle: Klucel (hydroxypropylcellulose) (HPC), evaluated on day 15
  T/C: 89 % of control
dose: 18.75 mg/kg/injection, schedule: Q04DX004 (sc), vehicle: Klucel (hydroxypropylcellulose) (HPC), evaluated on day 15
  T/C: 83 % of control
dose: 37.5 mg/kg/injection, schedule: Q04DX004 (sc), vehicle: Klucel (hydroxypropylcellulose) (HPC), evaluated on day 15
  T/C: 32 % of control
dose: 75.0 mg/kg/injection, schedule: Q04DX004 (sc), vehicle: Klucel (hydroxypropylcellulose) (HPC), evaluated on day 15
  T/C: 31 % of control [4 of 6 alive on day 15]

## ClCCN(CCCl)c1ccccc1
dose: 3.0 mg/kg/injection, schedule: Q01DX010 (sc), vehicle: saline with Tween-80, evaluated on day 11
  T/C: 63 and 153 % of control
dose: 3.13 mg/kg/injection, schedule: Q01DX010 (sc), vehicle: saline with Tween-80, evaluated on day 11
  T/C: 69 % of control
dose: 6.0 mg/kg/injection, schedule: Q01DX010 (sc), vehicle: saline with Tween-80, evaluated on day 11
  T/C: 90 and 93 % of control
dose: 6.25 mg/kg/injection, schedule: Q01DX010 (sc), vehicle: saline with Tween-80, evaluated on day 11
  T/C: 87 % of control
dose: 12.0 mg/kg/injection, schedule: Q01DX010 (sc), vehicle: saline with Tween-80, evaluated on day 11
  T/C: 71 and 119 % of control
dose: 12.5 mg/kg/injection, schedule: Q01DX010 (sc), vehicle: saline with Tween-80, evaluated on day 11
  T/C: 18 % of control
dose: 24.0 mg/kg/injection, schedule: Q01DX010 (sc), vehicle: saline with Tween-80
  survivor count: 0 of 6 on day 11 and 2 of 6 on day 11
dose: 25.0 mg/kg/injection, schedule: Q01DX010 (sc), vehicle: saline with Tween-80
  survivor count: 0 of 3 on day 11 and 1 of 3 on day 11
dose: 50.0 mg/kg/injection, schedule: Q01DX010 (sc), vehicle: saline with Tween-80
  survivor count: 0 of 3 on day 11
dose: 100.0 mg/kg/injection, schedule: Q01DX010 (sc), vehicle: saline with Tween-80
  survivor count: 0 of 3 on day 11
dose: 200.0 mg/kg/injection, schedule: Q01DX010 (sc), vehicle: saline with Tween-80
  survivor count: 0 of 3 on day 11

## C[N+](CCCl)(CCCl)Cc1ccc([N+](=O)[O-])cc1
dose: 25.0 mg/kg/injection, schedule: Q04DX004 (sc), vehicle: suspension in saline, evaluated on day 15
  T/C: 135 % of control

## O=NN(CCSCCCl)C(=O)NC1CCCCC1
dose: 75.0 mg/kg/injection, schedule: Q04DX004 (sc), vehicle: saline with Tween-80, evaluated on day 15
  T/C: 127 % of control
dose: 300.0 mg/kg/injection, schedule: Q04DX004 (sc), vehicle: saline with Tween-80, evaluated on day 15
  T/C: 46 % of control
